In the supplement of paper PMC12067093, “Discovery and optimisation of a covalent ligand for TRIM25 and its application to targeted protein ubiquitination” (Chemical Science, 2025):
This is one part of the list.

Amino acid sequences for entries named in this document (tags omitted). A change or cut given only in a name is not applied to a line headed by its entry.
UniProt A0MZ66, whole entry, looked up: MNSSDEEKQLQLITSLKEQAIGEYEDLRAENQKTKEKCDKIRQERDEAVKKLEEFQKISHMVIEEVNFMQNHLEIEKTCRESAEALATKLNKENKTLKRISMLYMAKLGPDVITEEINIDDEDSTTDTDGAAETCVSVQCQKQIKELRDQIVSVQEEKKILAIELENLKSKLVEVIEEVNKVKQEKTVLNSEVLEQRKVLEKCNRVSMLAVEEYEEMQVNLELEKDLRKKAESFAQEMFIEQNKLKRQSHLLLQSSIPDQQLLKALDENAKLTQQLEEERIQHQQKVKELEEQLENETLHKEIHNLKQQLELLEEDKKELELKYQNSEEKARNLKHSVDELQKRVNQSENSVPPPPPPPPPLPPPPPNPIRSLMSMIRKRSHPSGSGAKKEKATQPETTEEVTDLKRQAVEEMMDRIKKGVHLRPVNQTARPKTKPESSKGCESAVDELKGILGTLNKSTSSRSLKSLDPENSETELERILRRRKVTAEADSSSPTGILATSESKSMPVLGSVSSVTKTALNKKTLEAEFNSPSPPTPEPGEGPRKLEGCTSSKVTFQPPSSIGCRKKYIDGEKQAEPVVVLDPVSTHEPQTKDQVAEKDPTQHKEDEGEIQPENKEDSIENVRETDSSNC
UniProt Q00325: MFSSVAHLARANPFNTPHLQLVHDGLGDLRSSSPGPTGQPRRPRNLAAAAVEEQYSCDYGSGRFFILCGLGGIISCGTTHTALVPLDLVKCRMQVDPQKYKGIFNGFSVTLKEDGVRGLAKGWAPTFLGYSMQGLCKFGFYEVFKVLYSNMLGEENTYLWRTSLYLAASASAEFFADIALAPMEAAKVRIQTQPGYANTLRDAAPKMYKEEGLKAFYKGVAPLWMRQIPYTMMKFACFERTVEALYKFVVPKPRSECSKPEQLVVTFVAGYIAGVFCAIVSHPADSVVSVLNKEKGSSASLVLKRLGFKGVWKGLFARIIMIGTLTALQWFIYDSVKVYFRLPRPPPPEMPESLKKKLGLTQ
UniProt Q96B97, whole entry, looked up: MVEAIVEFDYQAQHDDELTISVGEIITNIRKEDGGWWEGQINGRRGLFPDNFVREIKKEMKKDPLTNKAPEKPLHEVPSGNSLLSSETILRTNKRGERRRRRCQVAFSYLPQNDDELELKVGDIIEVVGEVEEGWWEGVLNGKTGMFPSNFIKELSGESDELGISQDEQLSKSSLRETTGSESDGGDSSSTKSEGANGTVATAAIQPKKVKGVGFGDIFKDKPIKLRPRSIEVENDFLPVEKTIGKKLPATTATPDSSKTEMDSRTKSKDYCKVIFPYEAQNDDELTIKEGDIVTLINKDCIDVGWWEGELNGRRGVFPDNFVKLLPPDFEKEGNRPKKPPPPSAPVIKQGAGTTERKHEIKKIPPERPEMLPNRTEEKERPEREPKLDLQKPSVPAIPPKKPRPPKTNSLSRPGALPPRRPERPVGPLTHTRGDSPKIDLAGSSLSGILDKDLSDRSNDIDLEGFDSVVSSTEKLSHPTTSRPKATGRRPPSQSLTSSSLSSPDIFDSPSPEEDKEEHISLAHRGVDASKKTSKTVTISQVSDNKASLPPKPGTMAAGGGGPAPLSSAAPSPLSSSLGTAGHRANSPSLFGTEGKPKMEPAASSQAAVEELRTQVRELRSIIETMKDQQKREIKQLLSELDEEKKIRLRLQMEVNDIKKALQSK
UniProt Q9UPS6, whole entry, looked up: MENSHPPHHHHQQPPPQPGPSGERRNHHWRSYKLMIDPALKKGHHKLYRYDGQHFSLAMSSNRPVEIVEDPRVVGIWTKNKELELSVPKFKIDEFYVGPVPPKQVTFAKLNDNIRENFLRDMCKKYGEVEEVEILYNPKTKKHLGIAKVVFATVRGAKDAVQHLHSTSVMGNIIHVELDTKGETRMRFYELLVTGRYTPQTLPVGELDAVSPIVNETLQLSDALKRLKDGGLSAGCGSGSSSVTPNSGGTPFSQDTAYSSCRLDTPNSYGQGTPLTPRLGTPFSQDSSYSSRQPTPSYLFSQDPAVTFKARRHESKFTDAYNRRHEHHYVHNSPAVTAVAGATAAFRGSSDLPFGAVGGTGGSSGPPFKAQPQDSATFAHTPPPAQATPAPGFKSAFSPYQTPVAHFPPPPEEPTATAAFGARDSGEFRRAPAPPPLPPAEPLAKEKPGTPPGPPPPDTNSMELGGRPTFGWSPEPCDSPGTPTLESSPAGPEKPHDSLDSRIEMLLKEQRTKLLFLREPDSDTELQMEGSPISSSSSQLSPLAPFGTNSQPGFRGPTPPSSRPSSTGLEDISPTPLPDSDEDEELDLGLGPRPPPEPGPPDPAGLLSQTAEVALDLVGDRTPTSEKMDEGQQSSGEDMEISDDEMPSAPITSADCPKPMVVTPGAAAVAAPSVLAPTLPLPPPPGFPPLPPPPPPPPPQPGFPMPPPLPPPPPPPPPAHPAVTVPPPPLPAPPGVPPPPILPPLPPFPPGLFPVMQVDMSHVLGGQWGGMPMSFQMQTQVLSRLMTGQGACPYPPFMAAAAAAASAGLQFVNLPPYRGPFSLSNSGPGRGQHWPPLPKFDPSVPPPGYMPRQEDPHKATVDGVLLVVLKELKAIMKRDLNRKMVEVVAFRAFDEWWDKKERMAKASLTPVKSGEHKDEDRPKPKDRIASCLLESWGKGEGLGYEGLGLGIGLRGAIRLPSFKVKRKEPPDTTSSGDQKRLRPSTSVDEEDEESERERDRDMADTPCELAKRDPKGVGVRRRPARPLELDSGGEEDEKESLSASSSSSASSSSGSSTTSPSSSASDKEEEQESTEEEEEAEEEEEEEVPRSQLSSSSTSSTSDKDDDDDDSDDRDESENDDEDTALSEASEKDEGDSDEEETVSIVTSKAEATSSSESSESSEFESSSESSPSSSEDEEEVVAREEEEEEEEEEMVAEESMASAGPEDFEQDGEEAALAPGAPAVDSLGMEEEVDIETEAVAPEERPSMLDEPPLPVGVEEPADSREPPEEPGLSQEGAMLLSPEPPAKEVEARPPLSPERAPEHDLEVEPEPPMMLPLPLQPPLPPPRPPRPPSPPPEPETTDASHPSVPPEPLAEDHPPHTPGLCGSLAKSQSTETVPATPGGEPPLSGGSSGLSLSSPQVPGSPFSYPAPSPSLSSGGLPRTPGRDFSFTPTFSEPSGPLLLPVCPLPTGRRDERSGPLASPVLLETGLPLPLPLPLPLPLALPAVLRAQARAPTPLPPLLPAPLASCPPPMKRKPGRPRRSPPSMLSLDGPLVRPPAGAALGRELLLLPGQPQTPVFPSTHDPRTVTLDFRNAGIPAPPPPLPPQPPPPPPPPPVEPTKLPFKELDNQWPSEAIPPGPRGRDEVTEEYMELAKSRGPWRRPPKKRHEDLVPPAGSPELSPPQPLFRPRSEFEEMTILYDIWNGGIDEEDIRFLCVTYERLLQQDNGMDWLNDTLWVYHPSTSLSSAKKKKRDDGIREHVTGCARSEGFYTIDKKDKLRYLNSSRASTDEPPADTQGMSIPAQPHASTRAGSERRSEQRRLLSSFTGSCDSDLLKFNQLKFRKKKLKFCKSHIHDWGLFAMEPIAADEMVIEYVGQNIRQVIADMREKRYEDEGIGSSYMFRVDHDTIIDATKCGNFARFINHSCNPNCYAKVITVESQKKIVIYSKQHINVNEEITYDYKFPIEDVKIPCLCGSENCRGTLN
UniProt Q7Z333: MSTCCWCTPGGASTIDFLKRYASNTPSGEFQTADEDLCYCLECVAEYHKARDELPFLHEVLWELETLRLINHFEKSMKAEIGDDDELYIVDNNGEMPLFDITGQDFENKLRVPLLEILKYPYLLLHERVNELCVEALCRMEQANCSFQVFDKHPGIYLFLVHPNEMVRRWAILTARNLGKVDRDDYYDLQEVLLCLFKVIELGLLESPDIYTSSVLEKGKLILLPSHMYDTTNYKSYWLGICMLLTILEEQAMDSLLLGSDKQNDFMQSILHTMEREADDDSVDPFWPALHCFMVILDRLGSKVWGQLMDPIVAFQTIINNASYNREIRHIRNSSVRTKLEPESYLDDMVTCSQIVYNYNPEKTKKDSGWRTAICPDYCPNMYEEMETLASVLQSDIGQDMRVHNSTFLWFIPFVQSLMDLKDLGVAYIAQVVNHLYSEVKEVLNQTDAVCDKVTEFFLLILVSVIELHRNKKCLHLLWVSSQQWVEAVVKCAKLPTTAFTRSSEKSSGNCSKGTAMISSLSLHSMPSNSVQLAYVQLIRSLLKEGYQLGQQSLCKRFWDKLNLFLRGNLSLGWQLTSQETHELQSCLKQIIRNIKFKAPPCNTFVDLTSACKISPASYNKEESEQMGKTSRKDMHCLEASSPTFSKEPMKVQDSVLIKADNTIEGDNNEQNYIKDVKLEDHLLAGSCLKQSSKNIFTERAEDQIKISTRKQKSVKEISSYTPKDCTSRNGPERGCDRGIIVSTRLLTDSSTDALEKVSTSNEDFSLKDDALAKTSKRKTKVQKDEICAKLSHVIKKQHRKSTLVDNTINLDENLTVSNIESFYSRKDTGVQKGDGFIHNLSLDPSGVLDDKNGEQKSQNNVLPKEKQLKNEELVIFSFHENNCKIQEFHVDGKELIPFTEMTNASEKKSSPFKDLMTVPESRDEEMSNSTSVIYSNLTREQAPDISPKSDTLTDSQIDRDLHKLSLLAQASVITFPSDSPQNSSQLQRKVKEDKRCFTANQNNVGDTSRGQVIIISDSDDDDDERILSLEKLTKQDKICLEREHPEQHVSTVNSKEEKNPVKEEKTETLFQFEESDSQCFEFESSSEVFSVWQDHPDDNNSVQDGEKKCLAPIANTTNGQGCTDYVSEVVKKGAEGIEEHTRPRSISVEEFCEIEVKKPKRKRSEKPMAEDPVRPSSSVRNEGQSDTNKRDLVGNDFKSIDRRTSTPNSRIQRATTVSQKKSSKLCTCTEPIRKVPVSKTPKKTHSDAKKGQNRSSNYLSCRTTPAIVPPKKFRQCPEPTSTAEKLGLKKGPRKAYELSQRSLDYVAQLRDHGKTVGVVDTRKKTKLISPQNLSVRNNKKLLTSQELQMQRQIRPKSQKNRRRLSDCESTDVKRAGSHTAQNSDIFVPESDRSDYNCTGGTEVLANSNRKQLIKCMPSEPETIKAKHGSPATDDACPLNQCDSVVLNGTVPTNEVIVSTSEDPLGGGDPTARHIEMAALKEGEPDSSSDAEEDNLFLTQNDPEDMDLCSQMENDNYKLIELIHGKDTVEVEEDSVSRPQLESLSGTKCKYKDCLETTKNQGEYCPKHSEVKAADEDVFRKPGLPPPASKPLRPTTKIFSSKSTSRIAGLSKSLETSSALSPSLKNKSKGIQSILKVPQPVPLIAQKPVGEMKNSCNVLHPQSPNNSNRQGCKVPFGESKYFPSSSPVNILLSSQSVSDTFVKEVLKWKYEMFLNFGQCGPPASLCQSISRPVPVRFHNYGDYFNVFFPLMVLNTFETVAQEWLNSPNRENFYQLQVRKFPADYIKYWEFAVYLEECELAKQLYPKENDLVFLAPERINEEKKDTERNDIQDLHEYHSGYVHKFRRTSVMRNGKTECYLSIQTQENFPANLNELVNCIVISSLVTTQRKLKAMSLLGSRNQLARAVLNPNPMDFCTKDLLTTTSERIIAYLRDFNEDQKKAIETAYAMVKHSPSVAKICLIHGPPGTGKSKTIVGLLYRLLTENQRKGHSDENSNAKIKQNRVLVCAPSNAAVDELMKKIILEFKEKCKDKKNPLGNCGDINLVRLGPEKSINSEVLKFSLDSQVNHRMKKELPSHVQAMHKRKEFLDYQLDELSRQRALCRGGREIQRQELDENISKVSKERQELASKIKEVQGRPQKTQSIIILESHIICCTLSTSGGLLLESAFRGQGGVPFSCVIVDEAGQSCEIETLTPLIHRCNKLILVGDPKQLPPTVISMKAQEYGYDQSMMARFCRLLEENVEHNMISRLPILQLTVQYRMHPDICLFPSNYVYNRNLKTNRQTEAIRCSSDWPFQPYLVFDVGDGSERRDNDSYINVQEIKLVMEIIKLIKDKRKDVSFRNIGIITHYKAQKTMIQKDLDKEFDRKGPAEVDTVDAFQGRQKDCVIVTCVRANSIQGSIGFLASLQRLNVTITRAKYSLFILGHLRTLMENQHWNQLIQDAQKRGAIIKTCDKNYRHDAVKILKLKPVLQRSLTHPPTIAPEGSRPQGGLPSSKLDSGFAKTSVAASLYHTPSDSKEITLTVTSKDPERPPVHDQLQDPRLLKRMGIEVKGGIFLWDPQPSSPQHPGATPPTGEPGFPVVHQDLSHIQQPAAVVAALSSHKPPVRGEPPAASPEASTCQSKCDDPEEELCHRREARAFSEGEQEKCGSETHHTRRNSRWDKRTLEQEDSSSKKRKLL

Compound: CC1Cc2ccccc2N1C(=O)C1CCCN(C1)C(=O)CCl (mixture of isomers) [TRIM25 ligand 11 (diastereomer mixture)]
Test: probe-labelled cysteine peptide fold change vs DMSO (competition) (log2 fold change); higher = less target engagement (more negative = stronger competition)
Settings: THP-1, incubation time: 4 h
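Further: competitive chemoproteomic profiling in live THP-1 cells with an iodoacetamide desthiobiotin (IA-DTB) probe, comparing probe-labelled peptide intensities in compound-treated cells against DMSO-treated controls.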

SHTN1_A0MZ66_550_KLEGCTSSK (UniProt A0MZ66)
probe-labelled cysteine peptide fold change (10 µM): -0.0607
probe-labelled cysteine peptide fold change (50 µM): -0.213

SEPT11_Q9NVA2_41_STSQGFCFNILCVGETGIGK (UniProt Q9NVA2)
probe-labelled cysteine peptide fold change (10 µM): 0.108
probe-labelled cysteine peptide fold change (50 µM): 0.113

SEPT9_Q9UHD8_531_WGTIEVENTTHCEFAYLR (UniProt Q9UHD8)
probe-labelled cysteine peptide fold change (10 µM): 0.0123
probe-labelled cysteine peptide fold change (50 µM): -0.0856

SLC12A9_Q9BXP2_911_DLGPTLLVHGVTPVTCTDL (UniProt Q9BXP2)
probe-labelled cysteine peptide fold change (10 µM): -0.0974
probe-labelled cysteine peptide fold change (50 µM): -0.294

SEPT7_Q16181_204_ADTLTPEECQQFK (UniProt Q16181)
probe-labelled cysteine peptide fold change (10 µM): -0.00984
probe-labelled cysteine peptide fold change (50 µM): 0.0459

SETDB1_Q15047_781_RLEECLPTGVYECNKR (UniProt Q15047)
probe-labelled cysteine peptide fold change (10 µM): -0.124
probe-labelled cysteine peptide fold change (50 µM): -0.00361

SERINC3_Q13530_72_KIPGFCEGGFK (UniProt Q13530)
probe-labelled cysteine peptide fold change (10 µM): -0.0152
probe-labelled cysteine peptide fold change (50 µM): -0.0723

SKIV2L_Q15477_913_LFLPEGPCDHTVVK (UniProt Q15477)
probe-labelled cysteine peptide fold change (10 µM): 0.126
probe-labelled cysteine peptide fold change (50 µM): 0.0639

SIRT1_Q96EB6_326_EIYPGQFQPSLCHK (UniProt Q96EB6)
probe-labelled cysteine peptide fold change (10 µM): -0.0648
probe-labelled cysteine peptide fold change (50 µM): -0.132

SKA3_Q8IX90_126_NSVHEQEAINSDPELSNCENFQK (UniProt Q8IX90)
probe-labelled cysteine peptide fold change (10 µM): 0.211
probe-labelled cysteine peptide fold change (50 µM): 0.0728

SHCBP1_Q8NEM2_591_IQTSGEPDVAERVDLEELIECATGK (UniProt Q8NEM2)
probe-labelled cysteine peptide fold change (10 µM): -0.219
probe-labelled cysteine peptide fold change (50 µM): -0.443

SEPT5_Q99719_278_LYPWGIVEVENQAHCDFVK (UniProt Q99719)
probe-labelled cysteine peptide fold change (10 µM): 0.19
probe-labelled cysteine peptide fold change (50 µM): 0.194

SLC25A3_Q00325_136_GWAPTFLGYSMQGLCK (UniProt Q00325)
probe-labelled cysteine peptide fold change (10 µM): -0.0136
probe-labelled cysteine peptide fold change (50 µM): 0.22

SH3KBP1_Q96B97_301_DCIDVGWWEGELNGRR (UniProt Q96B97)
probe-labelled cysteine peptide fold change (10 µM): -0.0866
probe-labelled cysteine peptide fold change (50 µM): -0.063

SH3KBP1_Q96B97_301_DCIDVGWWEGELNGR (UniProt Q96B97)
probe-labelled cysteine peptide fold change (10 µM): -0.0633
probe-labelled cysteine peptide fold change (50 µM): 0.0287

SFMBT1_Q9UHJ3_325_SFVCHADSPGIFPVQWSLK (UniProt Q9UHJ3)
probe-labelled cysteine peptide fold change (10 µM): 0.0477
probe-labelled cysteine peptide fold change (50 µM): 0.225

SLC25A28_Q96A46_49_GAGGGEAGACRPPVR (UniProt Q96A46)
probe-labelled cysteine peptide fold change (10 µM): -0.0591
probe-labelled cysteine peptide fold change (50 µM): -0.186

SLC25A19_Q9HC21_222_KNENLQNLLCGSGAGVISK (UniProt Q9HC21)
probe-labelled cysteine peptide fold change (10 µM): -0.0148
probe-labelled cysteine peptide fold change (50 µM): -0.138

SGO2_Q562F6_681_DNENQCDYR (UniProt Q562F6)
probe-labelled cysteine peptide fold change (10 µM): -0.0725
probe-labelled cysteine peptide fold change (50 µM): -0.011

SETD1B_Q9UPS6_1908+1912_FINHSCNPNCYAK (UniProt Q9UPS6)
probe-labelled cysteine peptide fold change (10 µM): 0.066
probe-labelled cysteine peptide fold change (50 µM): 0.17

SETX_Q7Z333_1565_NQGEYCPK (UniProt Q7Z333)
probe-labelled cysteine peptide fold change (10 µM): -0.111
probe-labelled cysteine peptide fold change (50 µM): -0.15

SETX_Q7Z333_1368_LSDCESTDVKR (UniProt Q7Z333)
probe-labelled cysteine peptide fold change (10 µM): -0.221
probe-labelled cysteine peptide fold change (50 µM): -0.293

SHMT1_P34896_389_NTCPGDR (UniProt P34896)
probe-labelled cysteine peptide fold change (10 µM): 0.332
probe-labelled cysteine peptide fold change (50 µM): 0.219

SHCBP1_Q8NEM2_254_LHYDILEDRVPSGLIVDYHNLLSQCEESYR (UniProt Q8NEM2)
probe-labelled cysteine peptide fold change (10 µM): 0.175
probe-labelled cysteine peptide fold change (50 µM): 0.0706
